# Experimental data: PubChem BioAssay AID248 (DTP/NCI, 2004)
# The list shows only some results of the screen, not a fair sample: it gathers tests that were run many times, whatever their T/C, doses with no T/C, and many T/C values between a quarter and a half above the control. Other doses and runs of a compound stand elsewhere. T/C gives the treated animals as a percentage of the vehicle group. Some entries give survivors of the animals treated and no T/C: the source holds a T/C of zero for them, seemingly a mark for toxic or unscored doses. Some survivor counts are full or nearly so, which does not show that the dose was tolerated: the source hardly ever lists a survival T/C far under the control, and the zero likely stands for such cases as well. Survivors were counted at the toxicity check, usually on the fifth day, unless a day is given; later deaths do not show. Schedules are NCI's codes, read here as Q, the interval in days (D) or hours (H), X, the number of doses. Some doses were run more than once; the results are listed from low to high. Where survival is the endpoint, this PubChem deposit counts one and a half times the control or more as active, and values a quarter to a half above the control carry no call in these data; other NCI protocols may use other cut-offs. Some T/C values are followed by the survivors on the day toxicity was checked, most often the fifth; where none is given, no animal had died by that day.
# System: L1210 leukemia ip in BDF1 mice, survival T/C
# Assay: NCI In Vivo Anticancer Drug Screen. Data for tumor model L1210 Leukemia (intraperitoneal) in B6D2F1 (BDF1) mice
# Conditions: T/C endpoint: mean survival time, higher T/C = longer survival
# [1] = dose: 50.0 mg/kg/injection, schedule: Q04DX003 (ip), vehicle: saline
# [2] = dose: 100.0 mg/kg/injection, schedule: Q01DX009 (ip), vehicle: saline
# [3] = dose: 100.0 mg/kg/injection, schedule: Q04DX003 (ip), vehicle: saline with Tween-80
# [4] = dose: 200.0 mg/kg/injection, schedule: Q04DX003 (ip), vehicle: saline with Tween-80
# [5] = dose: 400.0 mg/kg/injection, schedule: Q04DX003 (ip), vehicle: saline with Tween-80
# [6] = dose: 200.0 mg/kg/injection, schedule: Q01DX001 (ip), vehicle: saline with Tween-80
# [7] = dose: 200.0 mg/kg/injection, schedule: Q01DX009 (ip), vehicle: carboxymethylcellulose (CMC)
# [8] = dose: 400.0 mg/kg/injection, schedule: Q01DX009 (ip), vehicle: carboxymethylcellulose (CMC)
# [9] = dose: 200.0 mg/kg/injection, schedule: Q04DX003 (ip), vehicle: Klucel (hydroxypropylcellulose) (HPC)
# [10] = dose: 400.0 mg/kg/injection, schedule: Q04DX003 (ip), vehicle: Klucel (hydroxypropylcellulose) (HPC)
# [11] = dose: 400.0 mg/kg/injection, schedule: Q01DX001 (ip), vehicle: saline
# [12] = dose: 198.0 mg/kg/injection, schedule: Q01DX001 (ip), vehicle: saline
# [13] = dose: 300.0 mg/kg/injection, schedule: Q01DX001 (ip), vehicle: saline
# [14] = dose: 400.0 mg/kg/injection, schedule: Q01DX009 (ip), vehicle: saline with Tween-80
structure (smiles),measurement,setting,value
OCCOCCN1CCN(CCCN2c3ccccc3Sc3ccc(C(F)(F)F)cc32)CC1,survivor count,"dose: 3.12 mg/kg/injection, schedule: Q01DX009 (ip), vehicle: saline",6 of 6
same,survivor count,"dose: 6.25 mg/kg/injection, schedule: Q01DX009 (ip), vehicle: saline",6 of 6
same,survivor count,"dose: 12.5 mg/kg/injection, schedule: Q01DX009 (ip), vehicle: saline",4 of 6
same,survivor count,"dose: 25.0 mg/kg/injection, schedule: Q01DX009 (ip), vehicle: saline",3 of 6
same,T/C,"dose: 33.0 mg/kg/injection, schedule: Q04DX003 (ip), vehicle: saline",128 and 132 % of control
same,survivor count,"dose: 37.5 mg/kg/injection, schedule: Q01DX009 (ip), vehicle: saline",6 of 6
same,T/C,"dose: 37.5 mg/kg/injection, schedule: Q04DX003 (ip), vehicle: saline",135 % of control
same,survivor count,"dose: 50.0 mg/kg/injection, schedule: Q01DX009 (ip), vehicle: saline",5 of 6
same,T/C,[1],"109, 122 [5 of 6 alive], 128, 135, 150 % of control"
same,survivor count,[1],4 of 6
same,survivor count,"dose: 75.0 mg/kg/injection, schedule: Q01DX009 (ip), vehicle: saline",0 of 6
same,T/C,"dose: 75.0 mg/kg/injection, schedule: Q04DX003 (ip), vehicle: saline","95, 113 [5 of 6 alive], 131, 173 % of control [5 of 6 alive]"
same,survivor count,[2],6 of 6
same,survivor count,[3],4 of 6
same,survivor count,"dose: 100.0 mg/kg/injection, schedule: Q04DX003 (ip), vehicle: saline",1 of 6 and 6 of 6
same,survivor count,"dose: 150.0 mg/kg/injection, schedule: Q04DX003 (ip), vehicle: saline",2 of 6
same,survivor count,[4],0 of 6
same,survivor count,"dose: 300.0 mg/kg/injection, schedule: Q04DX003 (ip), vehicle: saline",0 of 6
same,survivor count,[5],0 of 6
same,survivor count,"dose: 600.0 mg/kg/injection, schedule: Q04DX003 (ip), vehicle: saline",0 of 6
same,survivor count,"dose: 400.0 micrograms/kg/injection, schedule: Q01DX009 (ip), vehicle: saline",5 of 6
same,survivor count,"dose: 800.0 micrograms/kg/injection, schedule: Q01DX009 (ip), vehicle: saline",6 of 6
CCCCCC(C)NC(=O)N(CCCl)N=O (centres undefined) (tested in a mixture with another compound),survivor count,[6],10 of 10
c1ccc(-c2csc3n4ccccc4c[n+]23)cc1,survivor count,"dose: 100.0 mg/kg/injection, schedule: Q04DX002 (ip), vehicle: saline with Tween-80",1 of 3
same,survivor count,"dose: 200.0 mg/kg/injection, schedule: Q04DX002 (ip), vehicle: saline with Tween-80",0 of 3
same,survivor count,"dose: 400.0 mg/kg/injection, schedule: Q04DX002 (ip), vehicle: saline with Tween-80",0 of 3
Cn1c(=O)c(=O)n(C)c2cc(Cl)c(Cl)cc21,survivor count,"dose: 400.0 mg/kg/injection, schedule: Q01DX001 (ip), vehicle: carboxymethylcellulose (CMC)",0 of 4
OC(CN1CCCCC1)c1ccc(/C=C/c2ccc(Cl)cc2)cc1 (centres undefined),survivor count,"dose: 25.0 mg/kg/injection, schedule: Q01DX009 (ip), vehicle: saline with Tween-80",6 of 6
same,survivor count,"dose: 50.0 mg/kg/injection, schedule: Q04DX003 (ip), vehicle: saline with Tween-80",6 of 6
same,survivor count,[3],6 of 6
same,survivor count,[6],6 of 6
same,survivor count,"dose: 400.0 mg/kg/injection, schedule: Q01DX001 (ip), vehicle: saline with Tween-80",2 of 6
O=[N+]([O-])c1ccc(O)c(Br)c1,survivor count,"dose: 50.0 mg/kg/injection, schedule: Q01DX009 (ip), vehicle: carboxymethylcellulose (CMC)",5 of 6
same,survivor count,"dose: 100.0 mg/kg/injection, schedule: Q01DX009 (ip), vehicle: carboxymethylcellulose (CMC)",0 of 6 and 1 of 6
same,survivor count,[7],0 of 6
same,survivor count,[8],0 of 6
Cc1nc(-c2ccc(N=Cc3ccc(N(CCOS(C)(=O)=O)CCOS(C)(=O)=O)cc3)cc2)c(C)s1,T/C,"dose: 20.0 mg/kg/injection, schedule: Q04DX003 (ip), vehicle: Klucel (hydroxypropylcellulose) (HPC)",145 % of control
same,survivor count,[9],3 of 6
same,survivor count,[10],0 of 6
CCOC(=O)N1C(=O)NC(=O)C1c1ccccc1 (centres undefined),survivor count,[11],2 of 4
O=P1(c2ccccc2)OCCO1,survivor count,[7],6 of 6
same,survivor count,[8],2 of 6
Cc1ccc2c(ccc(/C=C/c3ccnc4c(O)cccc34)[n+]2C)c1,survivor count,"dose: 132.0 mg/kg/injection, schedule: Q01DX001 (ip), vehicle: saline",3 of 6
same,T/C,[12],126 % of control
same,survivor count,[12],0 of 6
same,T/C,[13],131 % of control [4 of 6 alive]
same,survivor count,[13],0 of 6
same,survivor count,"dose: 450.0 mg/kg/injection, schedule: Q01DX001 (ip), vehicle: saline",0 of 6 and 1 of 6
CCC(=O)/C=C/C1C(C)=CCCC1(C)C (centres undefined),survivor count,[14],2 of 6
NC(N)=NCCCOc1ccc([N+](=O)[O-])cc1,survivor count,[4],6 of 6
same,survivor count,[5],6 of 6
Cc1ccc2c(n1)Nc1ncnc(N)c1S2,survivor count,"dose: 50.0 mg/kg/injection, schedule: Q04DX003 (ip), vehicle: Klucel (hydroxypropylcellulose) (HPC)",3 of 3
same,survivor count,"dose: 100.0 mg/kg/injection, schedule: Q04DX003 (ip), vehicle: carboxymethylcellulose (CMC)",0 of 6
same,survivor count,"dose: 200.0 mg/kg/injection, schedule: Q04DX003 (ip), vehicle: carboxymethylcellulose (CMC)",0 of 6
same,survivor count,"dose: 400.0 mg/kg/injection, schedule: Q04DX003 (ip), vehicle: carboxymethylcellulose (CMC)",0 of 6
COc1ccc2cnnc(NN)c2c1,survivor count,"dose: 150.0 mg/kg/injection, schedule: Q01DX001 (ip), vehicle: other",3 of 6
same,survivor count,"dose: 300.0 mg/kg/injection, schedule: Q01DX001 (ip), vehicle: other",0 of 6
CC(C)(C)C1=CC(=O)C=C(C(C)(C)C)C1=O,survivor count,"dose: 100.0 mg/kg/injection, schedule: Q04DX003 (ip), vehicle: Klucel (hydroxypropylcellulose) (HPC)",6 of 6
CC(C)CCCC(C)C1CCC2C3CC=C4CC([S+](C)C)CCC4(C)C3CCC12C (centres undefined),survivor count,[2],6 of 6
same,survivor count,"dose: 200.0 mg/kg/injection, schedule: Q04DX003 (ip), vehicle: alcohol",6 of 6
same,survivor count,"dose: 400.0 mg/kg/injection, schedule: Q04DX003 (ip), vehicle: alcohol",5 of 6
O=[N+]([O-])c1ccc(S(=O)[O-])cc1.O=[N+]([O-])c1ccc(S(=O)[O-])cc1.[Zn+2],survivor count,[13],0 of 6
Nc1c(Cl)cc(C(=O)NC2CC2)cc1Cl,survivor count,"dose: 200.0 mg/kg/injection, schedule: Q01DX009 (ip), vehicle: Klucel (hydroxypropylcellulose) (HPC)",5 of 6
same,survivor count,[9],4 of 4
same,survivor count,"dose: 400.0 mg/kg/injection, schedule: Q01DX009 (ip), vehicle: Klucel (hydroxypropylcellulose) (HPC)",0 of 6
same,survivor count,[10],0 of 4
CCNC(C)(C)C(SS(=O)(=O)O)c1ccc(Cl)s1 (centres undefined),survivor count,[14],6 of 6
CCOC(=O)c1ccc(NC(=O)Sc2ccc(C(C)(C)C)cc2C)cc1,survivor count,[14],5 of 6
O=C(NC1CCCCC1)c1ccc2ccccc2c1O,survivor count,[3],1 of 6
CCC1([N+](=O)[O-])COP(N)(=O)OC1 (centres undefined),survivor count,"dose: 100.0 mg/kg/injection, schedule: Q01DX001 (ip), vehicle: saline",3 of 6
same,survivor count,"dose: 200.0 mg/kg/injection, schedule: Q01DX001 (ip), vehicle: saline",3 of 6
same,survivor count,[11],1 of 6
NC(=O)N1Cc2ccccc2CCc2ccccc2C1,survivor count,[9],6 of 6
CC1CCCCN1Cc1ccccc1CC(=O)c1ccccc1 (centres undefined),survivor count,"dose: 400.0 mg/kg/injection, schedule: Q04DX002 (ip), vehicle: Klucel (hydroxypropylcellulose) (HPC)",0 of 3
